Reference: US20040143098
For part of these data: At least one result comes from cells or an extract, where the contact may be indirect. For part of these data: The exact form of at least one protein or probe is not confirmed. For part of these data: A negative result means that nothing was seen under these conditions.

Chains of the proteins cited; added tags and fusions are not shown. A line that says so, or that is headed by a name, gives the form on record, which may keep a tag or linker.
DBF1 (one-hybrid cDNA fusion) (Zea mays), one chain, as listed by the source: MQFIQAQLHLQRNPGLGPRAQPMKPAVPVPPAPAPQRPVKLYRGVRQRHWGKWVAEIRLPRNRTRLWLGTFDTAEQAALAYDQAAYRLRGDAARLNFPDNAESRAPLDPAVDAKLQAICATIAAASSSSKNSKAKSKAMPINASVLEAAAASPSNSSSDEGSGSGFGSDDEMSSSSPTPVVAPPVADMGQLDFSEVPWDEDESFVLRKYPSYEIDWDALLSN
DBF1 partial (lacking AP2 DNA binding domain) (Zea mays), one chain, as listed by the source: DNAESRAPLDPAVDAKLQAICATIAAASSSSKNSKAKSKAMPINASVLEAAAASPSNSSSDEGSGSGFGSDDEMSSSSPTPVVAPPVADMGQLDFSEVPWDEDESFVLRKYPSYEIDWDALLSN

Experiments:
[1] = system: DBF1 (one-hybrid cDNA fusion) (Zea mays); test: one hybrid; settings: yeast YM4271, HIS3 (40 mM 3-AT) and lacZ reporters; protein in cells; protein details: HybriZap activation domain fusion
DBF1 (Zea mays) = test: EMSA; settings: purified recombinant protein, protein details: pET28 tag (about 31 aa), expressed in E. coli, label: 32P
[2] = system: DBF1 partial (lacking AP2 DNA binding domain) (Zea mays); test: EMSA; settings: same buffer, DNA binding domain deleted, purified recombinant protein, label: 32P

## AATTCCCGGGCCACCGACGCACGGCCGCACCGACGCACGGCCGGGCCACCGACGCACGG (double strand) [3xDRE2]
[1]
  binding result: binds

## GGGGTCGACCGGGCCACCGACGCACCGGCTCGAG / GGGGCTCGAGCCGTGCGTCGGTGGCCCGGTCGA [DRE2]
DBF1 (Zea mays); 25 mM HEPES pH 7.8, 75 mM KCl, 5 mM MgCl2, poly(dI-dC), on ice, confirmed by competition
  binding result: binds
[2]
  binding result: no binding

## GGGGTCGACCGGGCCAGAATTCCACCGGCTCGAG / GGGGCTCGAGCCGTGGAATTCTGGCCCGGTCGA [DRE2m]
DBF1 (Zea mays); same buffer, variant of DRE2
  binding result: no binding
[2]; variant of DRE2
  binding result: no binding

## GGGGTCGAGAAGAACCGACGTGGCGGTCGAG / GGGGCTCGACCGCCACGTCTCGGTTCTTCTCGA [DRE1/ABRE1]
DBF1 (Zea mays); same buffer
  binding result: no binding
